These are yes or no findings as the source states them, for the method shown. In cells and extracts the contact can be indirect. Some results given as binding are weak or reduced against the parent protein; the word gives no strength.
Target: Casein Kinase 2 Alpha 1 (CKII) (human (endogenous in MHCC97H and HCCLM3)) (UniProt P68400)
Assay: co-IP; endogenous proteins of HCC cells (MHCC97H and HCCLM3); protein A/G PLUS-Agarose; IgG group as negative control; SDS-PAGE and immunoblot

Chains of the proteins cited; added tags and fusions are not shown.
UniProt P68400: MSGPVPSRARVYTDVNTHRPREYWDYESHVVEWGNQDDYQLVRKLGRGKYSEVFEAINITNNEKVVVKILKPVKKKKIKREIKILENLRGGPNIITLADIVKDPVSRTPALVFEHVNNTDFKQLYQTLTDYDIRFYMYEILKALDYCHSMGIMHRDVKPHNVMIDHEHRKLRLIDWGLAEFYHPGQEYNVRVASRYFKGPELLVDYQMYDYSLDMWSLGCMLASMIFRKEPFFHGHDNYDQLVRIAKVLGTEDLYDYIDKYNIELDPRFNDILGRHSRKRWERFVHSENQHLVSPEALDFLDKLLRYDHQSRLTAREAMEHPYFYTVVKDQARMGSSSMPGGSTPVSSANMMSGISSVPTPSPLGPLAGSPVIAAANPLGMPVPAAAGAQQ

With “NCAPG, non-SMC subunit in the concentrate I complex (from UniProt Q9BPX3 1-1015)” the binding was “binds”.

— paper PMC9301831
